Results taken from the supplement of paper PMC11006884.
What follows is the remainder of the data, with few or none of the targets with a hit. Single values of this set are uncertain. The list shows a part of the results, in another mix than the full data.

Sequences of proteins named here, by UniProt entry; tags and fusion partners are left off. A change or cut given only in a name is not applied to a line headed by its entry.
UniProt P51553: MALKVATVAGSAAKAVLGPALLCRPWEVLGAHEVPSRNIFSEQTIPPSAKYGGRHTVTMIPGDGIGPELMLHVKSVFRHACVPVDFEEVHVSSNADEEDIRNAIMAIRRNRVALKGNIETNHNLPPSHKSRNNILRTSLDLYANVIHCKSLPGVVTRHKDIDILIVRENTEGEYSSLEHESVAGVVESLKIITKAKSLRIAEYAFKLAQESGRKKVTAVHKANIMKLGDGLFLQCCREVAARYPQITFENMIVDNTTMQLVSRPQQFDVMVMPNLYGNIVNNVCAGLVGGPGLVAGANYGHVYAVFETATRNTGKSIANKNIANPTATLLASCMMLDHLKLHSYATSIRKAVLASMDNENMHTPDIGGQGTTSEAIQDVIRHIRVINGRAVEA
UniProt P49915: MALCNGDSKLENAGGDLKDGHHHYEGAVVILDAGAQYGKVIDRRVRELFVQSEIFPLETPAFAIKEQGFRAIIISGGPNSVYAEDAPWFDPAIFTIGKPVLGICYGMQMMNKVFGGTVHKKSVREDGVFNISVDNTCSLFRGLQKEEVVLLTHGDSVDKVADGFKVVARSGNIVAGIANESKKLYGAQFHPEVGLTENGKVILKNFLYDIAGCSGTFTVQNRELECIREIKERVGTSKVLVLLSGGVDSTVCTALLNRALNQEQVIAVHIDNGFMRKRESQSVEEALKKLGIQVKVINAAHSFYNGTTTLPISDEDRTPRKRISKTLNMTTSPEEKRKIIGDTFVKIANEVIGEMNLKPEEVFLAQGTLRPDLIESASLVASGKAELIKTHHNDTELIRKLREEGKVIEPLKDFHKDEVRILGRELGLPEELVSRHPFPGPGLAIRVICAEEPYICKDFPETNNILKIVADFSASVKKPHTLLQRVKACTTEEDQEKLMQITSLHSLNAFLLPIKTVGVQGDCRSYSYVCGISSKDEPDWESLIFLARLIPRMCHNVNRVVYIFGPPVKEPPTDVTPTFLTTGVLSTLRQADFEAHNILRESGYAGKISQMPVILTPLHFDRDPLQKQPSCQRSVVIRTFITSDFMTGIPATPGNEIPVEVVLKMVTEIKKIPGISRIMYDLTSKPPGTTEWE
UniProt P50991: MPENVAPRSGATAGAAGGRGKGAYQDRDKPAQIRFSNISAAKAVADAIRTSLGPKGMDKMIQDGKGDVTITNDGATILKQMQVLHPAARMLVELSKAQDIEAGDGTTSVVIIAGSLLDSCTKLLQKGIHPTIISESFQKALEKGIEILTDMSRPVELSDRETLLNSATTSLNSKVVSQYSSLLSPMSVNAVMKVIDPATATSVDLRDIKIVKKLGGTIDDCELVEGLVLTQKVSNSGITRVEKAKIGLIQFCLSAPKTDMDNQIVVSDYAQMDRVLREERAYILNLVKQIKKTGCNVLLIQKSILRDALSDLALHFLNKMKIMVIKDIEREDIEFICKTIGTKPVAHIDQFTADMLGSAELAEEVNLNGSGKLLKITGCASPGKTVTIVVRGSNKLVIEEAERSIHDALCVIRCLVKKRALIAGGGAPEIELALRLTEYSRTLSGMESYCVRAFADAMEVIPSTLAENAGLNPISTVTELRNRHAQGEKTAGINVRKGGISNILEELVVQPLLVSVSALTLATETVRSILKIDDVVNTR
UniProt P51570: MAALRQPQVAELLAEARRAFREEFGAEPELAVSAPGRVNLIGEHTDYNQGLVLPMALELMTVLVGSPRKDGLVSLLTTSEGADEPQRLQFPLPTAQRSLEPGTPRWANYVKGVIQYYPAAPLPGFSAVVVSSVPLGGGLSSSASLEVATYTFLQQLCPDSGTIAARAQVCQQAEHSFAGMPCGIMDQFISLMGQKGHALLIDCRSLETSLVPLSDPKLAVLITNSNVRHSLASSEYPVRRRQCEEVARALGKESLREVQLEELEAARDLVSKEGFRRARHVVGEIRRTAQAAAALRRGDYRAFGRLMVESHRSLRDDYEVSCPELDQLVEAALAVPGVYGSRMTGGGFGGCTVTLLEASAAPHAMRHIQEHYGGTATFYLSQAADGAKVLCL
UniProt P49327, whole entry, looked up: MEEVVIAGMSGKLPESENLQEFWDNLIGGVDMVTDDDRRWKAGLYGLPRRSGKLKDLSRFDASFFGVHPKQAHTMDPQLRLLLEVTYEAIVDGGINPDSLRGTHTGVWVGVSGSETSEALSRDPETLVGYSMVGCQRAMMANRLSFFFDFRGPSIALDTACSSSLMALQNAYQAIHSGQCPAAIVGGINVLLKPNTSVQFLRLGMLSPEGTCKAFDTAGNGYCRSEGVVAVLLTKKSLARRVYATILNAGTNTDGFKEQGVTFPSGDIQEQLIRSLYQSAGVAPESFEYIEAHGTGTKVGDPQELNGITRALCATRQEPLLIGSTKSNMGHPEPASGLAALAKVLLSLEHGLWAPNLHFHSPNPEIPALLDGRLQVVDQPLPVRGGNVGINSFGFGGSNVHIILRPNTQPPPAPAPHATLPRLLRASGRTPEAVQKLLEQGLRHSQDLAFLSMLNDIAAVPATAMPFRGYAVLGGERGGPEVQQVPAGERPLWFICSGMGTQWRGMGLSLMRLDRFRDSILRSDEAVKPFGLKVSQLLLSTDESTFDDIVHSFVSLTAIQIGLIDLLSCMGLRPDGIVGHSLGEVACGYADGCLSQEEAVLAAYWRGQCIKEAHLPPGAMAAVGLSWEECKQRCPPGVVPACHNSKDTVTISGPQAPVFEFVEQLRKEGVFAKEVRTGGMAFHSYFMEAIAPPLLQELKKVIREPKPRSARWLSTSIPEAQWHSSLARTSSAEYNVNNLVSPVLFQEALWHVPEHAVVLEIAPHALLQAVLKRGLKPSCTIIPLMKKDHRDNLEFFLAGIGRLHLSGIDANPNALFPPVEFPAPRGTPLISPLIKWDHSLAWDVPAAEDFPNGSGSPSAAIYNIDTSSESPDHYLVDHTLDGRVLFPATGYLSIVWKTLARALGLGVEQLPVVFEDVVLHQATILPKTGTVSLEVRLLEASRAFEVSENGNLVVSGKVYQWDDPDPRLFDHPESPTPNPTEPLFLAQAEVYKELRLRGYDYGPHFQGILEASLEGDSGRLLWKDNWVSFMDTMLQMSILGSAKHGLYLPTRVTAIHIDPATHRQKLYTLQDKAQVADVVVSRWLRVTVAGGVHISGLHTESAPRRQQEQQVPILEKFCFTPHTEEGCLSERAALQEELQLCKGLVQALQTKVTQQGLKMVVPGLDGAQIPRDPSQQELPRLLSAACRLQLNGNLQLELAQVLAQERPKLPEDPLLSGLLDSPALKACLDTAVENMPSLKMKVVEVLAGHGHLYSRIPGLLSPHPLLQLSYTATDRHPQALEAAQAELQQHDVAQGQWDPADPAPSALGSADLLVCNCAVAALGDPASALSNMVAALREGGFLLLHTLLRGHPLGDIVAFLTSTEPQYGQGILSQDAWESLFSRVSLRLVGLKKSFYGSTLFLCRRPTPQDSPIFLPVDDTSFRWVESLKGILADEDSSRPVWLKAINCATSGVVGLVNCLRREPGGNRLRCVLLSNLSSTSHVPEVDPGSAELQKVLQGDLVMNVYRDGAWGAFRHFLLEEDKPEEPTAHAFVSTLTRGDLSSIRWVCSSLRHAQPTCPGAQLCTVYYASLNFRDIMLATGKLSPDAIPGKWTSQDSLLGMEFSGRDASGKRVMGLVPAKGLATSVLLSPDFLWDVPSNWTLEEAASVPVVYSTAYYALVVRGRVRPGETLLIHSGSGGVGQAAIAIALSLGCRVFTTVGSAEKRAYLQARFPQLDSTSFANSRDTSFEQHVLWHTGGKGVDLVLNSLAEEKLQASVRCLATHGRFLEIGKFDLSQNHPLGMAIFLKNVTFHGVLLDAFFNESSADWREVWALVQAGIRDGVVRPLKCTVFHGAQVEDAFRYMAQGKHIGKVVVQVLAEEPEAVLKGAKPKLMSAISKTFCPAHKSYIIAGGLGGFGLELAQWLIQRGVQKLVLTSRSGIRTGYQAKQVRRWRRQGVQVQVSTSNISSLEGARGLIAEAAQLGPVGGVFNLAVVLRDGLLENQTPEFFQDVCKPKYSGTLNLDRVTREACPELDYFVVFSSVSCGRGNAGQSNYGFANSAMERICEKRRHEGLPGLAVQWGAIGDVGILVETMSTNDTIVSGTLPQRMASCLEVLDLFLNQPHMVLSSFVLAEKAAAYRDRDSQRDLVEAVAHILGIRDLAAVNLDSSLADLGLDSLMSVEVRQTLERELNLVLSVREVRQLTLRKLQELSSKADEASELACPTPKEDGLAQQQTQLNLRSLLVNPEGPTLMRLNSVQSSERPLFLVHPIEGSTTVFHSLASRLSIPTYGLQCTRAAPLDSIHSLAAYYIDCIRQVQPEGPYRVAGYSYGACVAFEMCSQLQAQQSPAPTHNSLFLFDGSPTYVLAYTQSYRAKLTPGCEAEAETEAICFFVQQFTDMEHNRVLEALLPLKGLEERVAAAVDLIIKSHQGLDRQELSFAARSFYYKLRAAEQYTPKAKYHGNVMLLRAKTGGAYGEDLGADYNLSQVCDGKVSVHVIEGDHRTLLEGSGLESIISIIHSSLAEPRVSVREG
UniProt P46734: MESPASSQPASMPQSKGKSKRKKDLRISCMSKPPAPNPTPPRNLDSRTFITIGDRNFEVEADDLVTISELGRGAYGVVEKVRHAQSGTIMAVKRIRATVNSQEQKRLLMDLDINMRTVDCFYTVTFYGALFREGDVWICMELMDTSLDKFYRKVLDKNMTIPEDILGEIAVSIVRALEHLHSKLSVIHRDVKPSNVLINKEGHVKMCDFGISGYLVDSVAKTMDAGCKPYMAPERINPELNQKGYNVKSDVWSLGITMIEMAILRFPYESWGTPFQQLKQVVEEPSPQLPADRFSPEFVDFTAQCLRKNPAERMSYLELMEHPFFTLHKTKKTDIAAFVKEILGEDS
UniProt P49840: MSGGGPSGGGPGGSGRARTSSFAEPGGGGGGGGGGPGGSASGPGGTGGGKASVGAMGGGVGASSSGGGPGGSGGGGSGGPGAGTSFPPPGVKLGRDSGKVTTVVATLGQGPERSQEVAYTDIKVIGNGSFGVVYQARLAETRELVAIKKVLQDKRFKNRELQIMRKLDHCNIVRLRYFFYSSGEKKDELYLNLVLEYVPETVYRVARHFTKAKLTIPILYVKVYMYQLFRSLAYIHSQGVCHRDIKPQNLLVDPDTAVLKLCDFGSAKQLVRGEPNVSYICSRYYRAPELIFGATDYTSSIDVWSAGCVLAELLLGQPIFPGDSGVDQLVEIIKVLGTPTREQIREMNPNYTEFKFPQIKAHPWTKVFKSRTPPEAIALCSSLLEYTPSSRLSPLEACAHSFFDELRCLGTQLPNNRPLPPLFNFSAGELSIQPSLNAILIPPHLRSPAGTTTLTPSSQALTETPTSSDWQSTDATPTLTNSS
UniProt P49643: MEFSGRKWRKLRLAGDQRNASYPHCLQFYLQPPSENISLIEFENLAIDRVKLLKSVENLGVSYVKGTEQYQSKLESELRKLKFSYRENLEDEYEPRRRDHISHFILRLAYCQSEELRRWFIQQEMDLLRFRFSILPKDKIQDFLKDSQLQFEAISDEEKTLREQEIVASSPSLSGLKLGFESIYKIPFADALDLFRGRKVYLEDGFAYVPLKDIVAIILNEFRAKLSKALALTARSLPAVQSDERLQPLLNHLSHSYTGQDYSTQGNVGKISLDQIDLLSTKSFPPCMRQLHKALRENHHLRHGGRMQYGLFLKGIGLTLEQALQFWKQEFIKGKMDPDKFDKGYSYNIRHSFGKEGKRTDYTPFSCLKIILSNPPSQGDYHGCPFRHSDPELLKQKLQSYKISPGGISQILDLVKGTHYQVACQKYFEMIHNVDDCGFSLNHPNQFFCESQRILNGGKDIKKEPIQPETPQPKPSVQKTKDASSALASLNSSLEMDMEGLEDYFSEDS
UniProt P49368: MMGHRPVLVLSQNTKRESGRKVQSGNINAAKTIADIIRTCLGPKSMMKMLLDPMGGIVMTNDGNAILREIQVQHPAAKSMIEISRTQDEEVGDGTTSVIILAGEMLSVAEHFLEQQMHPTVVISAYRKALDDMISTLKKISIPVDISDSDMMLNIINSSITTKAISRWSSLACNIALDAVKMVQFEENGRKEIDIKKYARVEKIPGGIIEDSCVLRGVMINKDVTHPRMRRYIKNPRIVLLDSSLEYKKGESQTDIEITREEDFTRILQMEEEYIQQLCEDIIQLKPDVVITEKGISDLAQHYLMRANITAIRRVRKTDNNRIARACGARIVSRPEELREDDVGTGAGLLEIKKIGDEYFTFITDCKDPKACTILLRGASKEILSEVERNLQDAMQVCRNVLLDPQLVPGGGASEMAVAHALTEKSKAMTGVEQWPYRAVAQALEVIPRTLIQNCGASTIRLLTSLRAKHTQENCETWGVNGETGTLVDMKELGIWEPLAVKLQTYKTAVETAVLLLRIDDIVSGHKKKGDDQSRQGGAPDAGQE

Compound: COC(=O)/C=C/c1ccccc1 [methyl cinnamate]
Assay: log2 ratio of iodoacetamide-alkyne labeling of the cysteine site, DMSO over compound (competition); higher = stronger covalent engagement of the cysteine by the compound, active = 1 or more
Details: 500 µM; treatment time 1 h; system: HEK293T cell lysate
Outline: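 Three replicates, each with duplicate channels, were prepared from HEK293T lysate (2 mg/mL) treated with vehicle or electrophile at 500 µM for 1 h at ambient temperature. Iodoacetamide alkyne was then applied for 1 h, and samples were clicked to sCIP-TMT reagents, pooled, trypsin-digested overnight at 37 °C, enriched on streptavidin, acid-eluted and analysed on Orbitrap Eclipse LC-MS/MS with FAIMS, with FragPipe quantification. The log2 competition ratio per cysteine is the mean control-channel divided by the mean compound-channel reporter intensity. Cysteines quantified in only one replicate were left out.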

log2 ratio of iodoacetamide-alkyne labeling, inactive:
IDH3G C81 (UniProt P51553) 0.374
GMPS C631 (UniProt P49915) 0.221
HCFC1 C1872 (UniProt P51610) 0.257
CCT4 C120 (UniProt P50991) 0.121
GALK1 C322 (UniProt P51570) 0.0825
NASP C708 (UniProt P49321) 0.358
RBM25 C132 (UniProt P49756) 0.128
FASN C2273 (UniProt P49327) 0.0474
UniProt P46734_C305 -0.355
CAPZB C206 (UniProt P47756) 0.297
CCT4 C450 (UniProt P50991) 0.289
FASN C2468 (UniProt P49327) 0.197
UniProt P49840_C380 0.198
IQGAP1 C781 (UniProt P46940) 0.432
NSF C599 (UniProt P46459) 0.0542
MSH2 C822 (UniProt P43246) 0.00108
GMPS C137 (UniProt P49915) 0.452
NOP2 C463 (UniProt P46087) 0.173
PRIM2 C25 (UniProt P49643) -0.0916
CTCF C38 (UniProt P49711) -0.0136
CCT3 C475 (UniProt P49368) 0.117
TAF6 C431 (UniProt P49848) -0.0424

2 consecutive records out of the list so far, quoted:
log2 ratio of iodoacetamide-alkyne labeling, inactive:
CCT4 C450 (UniProt P50991) 0.289
FASN C2468 (UniProt P49327) 0.197
